# Test results from the supplement of paper PMC4683952.
# Some of the results follow. Cut-off read from the data, not from the text of the source: active = 2 or more and inactive = the rest. Most values lie within the scatter of the assay; repeated measurements hardly agree.
# System: Lgr5 (MarsCy1-Lgr5-EGFP, U2OS)
# Test: cell-surface Lgr5 expression (SCi1 fluorescence, background-subtracted) relative to WT DMSO (fold of DMSO control); higher = more Lgr5 at the plasma membrane
# Conditions: U2OS MarsCy1-Lgr5-EGFP stable; treatment time: overnight; library: ActiProbe-5K (TimTec); 25 µM
row,SMILES,cell-surface Lgr5 expression
1,COc1ccc(/N=C\c2cccn2-c2ccc(Br)cc2)cn1,inactive: 0.905
2,Nc1ccc(N2CCOCC2)c2nonc12,inactive: 1.4
3,CCOC(=O)C1=C(C)NC(=O)NC1c1cc(C)sc1C (stereo unspecified),inactive: 1.13
4,O=C1c2ccccc2S(=O)(=O)N1c1c(F)c(F)nc(F)c1F,inactive: 0.974
5,O=C(CC(=O)C(F)(F)F)c1ccc(Cl)s1,inactive: 1.16
6,C1(/C(c2ccccc2C1=O)=O)=C/c1c[nH]c2c1cccc2,inactive: 1.35
7,NC(=S)N/N=C\c1cc(Cl)cc(Cl)c1O,inactive: 0.644
8,COc1cc(-c2nnc(C34CC5CC(C3)CC(n3cnc(Cl)n3)(C5)C4)o2)ccc1OC(F)F,inactive: 0.846
9,Cn1c(N)c(C(N)=O)sc1=S,inactive: 0.775
10,Clc1ccc(-c2nnc3cccc(Cl)n23)cc1,inactive: 1.28
11,C1CCN(SN2CCCCC2)CC1,inactive: 1.51
12,O=C1NC(=O)N2CCCC12 (stereo unspecified),inactive: 1.33
13,O=C(CCC(=O)Nc1nccs1)Nc1nccs1,inactive: 1.23
14,CN1CCC(C2COC2(c2ccccc2)c2ccccc2)CC1 (stereo unspecified),inactive: 1.24
15,O=S(=O)(N1CCOCC1)N1CCN(CC(O)COc2ccc3c(c2)CCC3)CC1 (stereo unspecified),inactive: 1.02
16,Cc1ccc(/C=C2/C=CC(=O)O2)o1,inactive: 1.41
17,Cc1cc(NC(=O)NC(C)(C)C)no1,inactive: 1.15
18,CC(C)c1ccc2c(c1)c1c3n2CCN=C3CCC1.Cl,inactive: 1.14
19,O=S(=O)(Nc1ccc(Cl)cc1)c1ccc(NS(=O)(=O)c2ccc3c(c2)OCCO3)cc1,inactive: 0.805
20,NC(=O)c1c(C(=O)O)no[n+]1[O-],inactive: 1.18
21,O=[N+]([O-])c1ccc2c(c1)oc1ccc(S(=O)(=O)N3CCCC3)cc12,inactive: 1.62
22,COc1c(N)cc(-c2nnn[nH]2)cc1N,inactive: 1.11
23,CCn1cc(-c2cc[nH]n2)cn1,inactive: 1.02

row,SMILES,cell-surface Lgr5 expression
1,O=c1cc(O)c2sc(SCCN3CCCC3)nc2[nH]1,inactive: 1.22
2,Nn1c(CCC(=O)O)nc2sc3c(c2c1=O)CCCC3,inactive: 1.1
3,O=C([O-])C1=C/C(=C(/c2ccccc2)c2cc(C(=O)[O-])c(O)c3ccccc23)c2ccccc2C1=O,inactive: 1.4
4,NCCSc1[nH]ncc1[N+](=O)[O-],inactive: 1.19
5,O=S(=O)(c1ccc(F)cc1)N1CCCCCC1,inactive: 1.32
6,CCCC[n+]1c(C)sc2ccccc21,inactive: 1.26
7,N#CC1=C(N)n2c(nc3ccccc32)C(C#N)C12CCCC2 (stereo unspecified),inactive: 1.05
8,CC(C)[C@@H]1CC[C@@H](C)C[C@@H]1OC(=O)C(O)C(O)C(=O)O[C@H]1C[C@H](C)CC[C@H]1C(C)C (stereo partly specified),inactive: 1.3
9,C(=N/c1ccc(/N=N/c2ccccc2)cc1)/c1ccc2ccccc2c1,inactive: 0.755
10,COCCOC(=O)/C(C#N)=C\c1ccoc1,inactive: 1.12
11,CC(C)n1nnc(CC(=O)O)n1,inactive: 1.19
12,O=[N+]([O-])c1ccc(N2CCOCC2)c(S(=O)(=O)N2CCOCC2)c1,inactive: 1.06
13,FC(F)(F)c1ccc(/C=N/n2c(S)nnc2-c2ccncc2)cc1,inactive: 1.04
14,COCc1cc(=O)n2nc(NC(C)=O)[nH]c2n1,inactive: 1.32
15,CC(C)N1CCC2(CC1)C(C#N)=C(O)NC1=C2C(=O)CC(C)(C)C1,inactive: 1.33
16,O=S(=O)(c1ccc(Br)cc1)N1CCCc2ccccc21,inactive: 1.2
17,CC(=O)C1=C(C)OC(N)=C(C#N)C1c1ccco1 (stereo unspecified),inactive: 1.08
18,Fc1cc(F)c(F)c(OCc2nc(-c3cccs3)no2)c1F,inactive: 1.17
19,CC(C)c1nnc(N)s1,inactive: 1.24
20,Cn1cc(-c2cc(C(F)(F)F)c3c(C4CC4)nn(C)c3n2)cn1,inactive: 1.05
21,NC(=O)CSc1nnc(SCC(N)=O)s1,inactive: 1.03
22,N#Cc1cc2c(nc1SC(CCC1CC1)c1ccccc1)CCC2 (stereo unspecified),inactive: 0.966
23,CCCCCOC(=O)CSc1n[nH]c(=O)[nH]c1=O,inactive: 1.28

# Compounds from the list above containing an aryl thioether with sulfur outside any ring (five):
row,SMILES,cell-surface Lgr5 expression
1,O=c1cc(O)c2sc(SCCN3CCCC3)nc2[nH]1,inactive: 1.22
4,NCCSc1[nH]ncc1[N+](=O)[O-],inactive: 1.19
21,NC(=O)CSc1nnc(SCC(N)=O)s1,inactive: 1.03
22,N#Cc1cc2c(nc1SC(CCC1CC1)c1ccccc1)CCC2 (stereo unspecified),inactive: 0.966
23,CCCCCOC(=O)CSc1n[nH]c(=O)[nH]c1=O,inactive: 1.28

# Next part

row,SMILES,cell-surface Lgr5 expression
1,C=CCC1C=CCC(CC=C)N1C(=O)CCC(=O)O (stereo unspecified),inactive: 1.26
2,COc1nc(N2CCOCC2)nc(-n2cccc2)n1,inactive: 1.23
3,O=C(O)C1OC(C(=O)O)C(C(=O)O)C1C(=O)O (stereo unspecified),inactive: 1.13
4,O=[N+]([O-])c1ccc(OS(=O)(=O)c2ccc3ccccc3c2)c2ncccc12,inactive: 1.36
5,O=C(O)CCCCCCCCCCC1CCCCC1=O (stereo unspecified),inactive: 1.38
6,C/C=C/CSc1nc2nc(C)cc(C)n2n1,inactive: 1.18
7,O=C(CCn1nc(C(F)(F)F)c(Cl)c1C1CC1)Nc1nccs1,inactive: 1.37
8,C=CCSc1sc2c(O)nc(=O)[nH]c2c1C#N,inactive: 1.1
9,Cn1c(=S)n(CCSc2nc3ccccc3n2-c2ccccc2)c2ccccc21,inactive: 1.86
10,CCOC(=O)c1c(O)c(Cl)c(C)[nH]c1=O,inactive: 1.27
11,Cn1c(=O)c2c(ncn2CCC#N)n(C)c1=O,inactive: 1.13
12,O=S(=O)(NC1CCCC1)c1ccc(Br)cc1,inactive: 1.32
13,O=C(CSc1nc2[nH]c(=O)cc(O)c2s1)Nc1nccs1,inactive: 1.14
14,CCCCNC(=S)N1CCOCC1,inactive: 1.38
15,CC(C)=CC/C=C1\CCC2C(=O)NC(=O)C2C1 (stereo unspecified),inactive: 1.4
16,O=S(=O)(c1ccc(Cl)cc1)N1CCc2ccccc21,inactive: 1.26
17,CCC1(C)Cc2c(c(=S)n(C)c3ncnc(N)c23)CO1 (stereo unspecified),inactive: 0.533
18,N#CC1=C(S)NC(=O)C(C#N)C12CCCCC2 (stereo unspecified),inactive: 1.33
19,c1cnc2c(OCc3nc4ccccc4[nH]3)cccc2c1,inactive: 1.19
20,COc1ccc2c(c1)Nc1ccccc1S2,inactive: 1.2
21,Nc1c(Cl)cc([N+](=O)[O-])cc1Br,inactive: 1.25
22,CCc1ccc(-c2cn3c(n2)SCC3)cc1,inactive: 1.47
23,Clc1cc(/C=N\c2c3ccccc3nc3ccccc23)c2c(c1)COCO2,inactive: 1.14

row,SMILES,cell-surface Lgr5 expression
1,Cn1c(SCc2ccon2)nc2sc3c(c2c1=O)CCC3,inactive: 1.13
2,COc1ccc(/C=N/Nc2nncn2N)cc1,inactive: 1.43
3,N#Cc1c(NC(=O)c2[nH]nc([N+](=O)[O-])c2Br)sc2c1CCC2,inactive: 1.26
4,c1ccc(CNCc2cn(Cc3ccccc3)c3ccccc23)cc1,inactive: 1.03
5,O=C(O)c1ccc(=O)[nH]n1,inactive: 0.952
6,Nc1nonc1/C(=N\O)N1CCN(c2ccc([N+](=O)[O-])cc2Cl)CC1,inactive: 1.16
7,C(/C#N)(C#N)=C/Nc1cc(F)ccc1F,inactive: 1.06
8,Oc1ccc(Sc2ccc(O)cc2O)c(O)c1,inactive: 0.879
9,Nc1nnc(SCC(=O)NC2CCCC2)s1,inactive: 1.22
10,O=c1cnc2ccc(Br)cc2[nH]1,inactive: 0.988
11,CCCSc1nsc(SCCC)c1C(N)=O,inactive: 1.25
12,FC(F)(F)Oc1ccc(/N=C\c2ccc(Br)s2)cc1,inactive: 1.1
13,Cn1cc(-c2cc(C(=O)O)n[nH]2)cn1,inactive: 1.49
14,O=[N+]([O-])c1ccc(N/N=C/c2ccc3c(c2)OCO3)c(C(F)(F)F)c1,inactive: 1.15
15,CSc1nc(C)cc(O)n1,inactive: 0.985
16,O=[N+]([O-])c1cnn(-c2cnc3ncnn3c2)c1,inactive: 1.38
17,Oc1nc2ccccc2nc1O,inactive: 1.35
18,C/N=C1/C(=N/O)C=Cc2ccccc21,inactive: 0.427
19,CCOC(=O)C1(N)CCC1.Cl,inactive: 1.3
20,c1coc(CSSCc2ccco2)c1,inactive: 1.24
21,S=c1[nH]c2ccccc2s1,inactive: 0.996
22,Cc1ccc(-c2nnc(CSc3nccn3C)o2)o1,inactive: 1.13
23,COc1cc(/C=N/n2c(S)nnc2-c2ccncc2)cc(OC)c1OC,inactive: 1.23

row,SMILES,cell-surface Lgr5 expression
1,N#CC1=C(N)C(C#N)(C#N)C(c2ccc[nH]2)C2CCCC=C12 (stereo unspecified),inactive: 0.821
2,CCC1CCC2(CC1)Nc1ccccc1S2 (stereo unspecified),inactive: 1.07
3,O=C(O)CCc1ccco1,inactive: 1.01
4,C/C(Cn1nnc([N+](=O)[O-])n1)=N\Nc1c(Cl)cc(Cl)cc1Cl,inactive: 1.06
5,C#Cc1nc(NC(C)C)nc(NC(C)C)n1,inactive: 1.05
6,CC(CC1CC(C)(C)OC1=O)C(=O)Nc1nncs1 (stereo unspecified),inactive: 1.24
7,CC(C)C(CO)NC(=O)CC(=O)NC(CO)C(C)C (stereo unspecified),inactive: 1.11
8,CN1CC(C(=O)N2CCc3ccccc32)CC1=O (stereo unspecified),inactive: 1.09
9,Cc1c([N+](=O)[O-])c2nsnc2c2nsnc12,inactive: 1.06
10,CNCc1ccsc1.Cl,inactive: 1.3
11,c1cc2c(cc1-n1cnnn1)OCO2,inactive: 1.11
12,CCn1cc(-c2csc(N)n2)cn1,inactive: 1.2
13,c1ccc2nc(SCc3ccon3)c(SCc3ccon3)nc2c1,active: 3.21
14,CCCCCCCCCS(=O)(=O)c1n[nH]c(N)n1,inactive: 1.08
15,O=C(O)C12CC3CC(C1)CC(n1cnc(Br)n1)(C3)C2,inactive: 1.24
16,O=S(=O)(c1ncn[nH]1)N1CCOCC1,inactive: 0.967
17,O=c1[nH]cnc2sc3c(c12)CCC3,inactive: 1.06
18,Cc1ncc(CO)c(CN)c1O.Cl,inactive: 1.05
19,c1cc(CSc2nc3ccccc3o2)nc(CSc2nc3ccccc3o2)c1,inactive: 1.16
